Reference: the supplement of paper PMC12823440, “Inhibitors supercharge kinase turnover through native proteolytic circuits” (Nature, 2025)
Counter-ions that a name gives are not always drawn. This is one part of the list. Hit calls seldom repeat between salt and free forms of one compound.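 Kinases, fused to nanoluciferase, were expressed in K562 cells; luminescence was measured every 4 h from 2 to 18 h as percent of control (DMSO = 100%, positive control = 0%). A time point is decreased if signal falls significantly (2 sigma). Hits were called by the authors by a rule that is not shown; the count of time points alone does not decide it.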

Sequences of proteins named here, by UniProt entry; tags and fusion partners are left off. A change or cut given only in a name is not applied to a line headed by its entry.
UniProt Q9Y616: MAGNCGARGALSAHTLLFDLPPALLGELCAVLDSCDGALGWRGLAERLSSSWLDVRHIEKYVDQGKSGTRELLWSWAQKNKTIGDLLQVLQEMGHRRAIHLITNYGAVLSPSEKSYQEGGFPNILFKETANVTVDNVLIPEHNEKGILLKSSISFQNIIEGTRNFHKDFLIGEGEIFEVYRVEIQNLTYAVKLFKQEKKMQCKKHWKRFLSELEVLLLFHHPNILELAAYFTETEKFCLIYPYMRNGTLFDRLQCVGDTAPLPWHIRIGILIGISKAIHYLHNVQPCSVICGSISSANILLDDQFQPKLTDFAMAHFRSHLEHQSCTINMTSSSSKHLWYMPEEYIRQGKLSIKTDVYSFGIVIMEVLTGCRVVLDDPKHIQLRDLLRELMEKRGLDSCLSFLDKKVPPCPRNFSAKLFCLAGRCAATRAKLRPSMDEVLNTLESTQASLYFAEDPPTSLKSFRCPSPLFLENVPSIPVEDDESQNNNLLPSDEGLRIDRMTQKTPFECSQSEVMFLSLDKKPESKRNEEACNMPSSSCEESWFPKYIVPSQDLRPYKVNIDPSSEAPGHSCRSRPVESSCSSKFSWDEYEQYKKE
UniProt P23458: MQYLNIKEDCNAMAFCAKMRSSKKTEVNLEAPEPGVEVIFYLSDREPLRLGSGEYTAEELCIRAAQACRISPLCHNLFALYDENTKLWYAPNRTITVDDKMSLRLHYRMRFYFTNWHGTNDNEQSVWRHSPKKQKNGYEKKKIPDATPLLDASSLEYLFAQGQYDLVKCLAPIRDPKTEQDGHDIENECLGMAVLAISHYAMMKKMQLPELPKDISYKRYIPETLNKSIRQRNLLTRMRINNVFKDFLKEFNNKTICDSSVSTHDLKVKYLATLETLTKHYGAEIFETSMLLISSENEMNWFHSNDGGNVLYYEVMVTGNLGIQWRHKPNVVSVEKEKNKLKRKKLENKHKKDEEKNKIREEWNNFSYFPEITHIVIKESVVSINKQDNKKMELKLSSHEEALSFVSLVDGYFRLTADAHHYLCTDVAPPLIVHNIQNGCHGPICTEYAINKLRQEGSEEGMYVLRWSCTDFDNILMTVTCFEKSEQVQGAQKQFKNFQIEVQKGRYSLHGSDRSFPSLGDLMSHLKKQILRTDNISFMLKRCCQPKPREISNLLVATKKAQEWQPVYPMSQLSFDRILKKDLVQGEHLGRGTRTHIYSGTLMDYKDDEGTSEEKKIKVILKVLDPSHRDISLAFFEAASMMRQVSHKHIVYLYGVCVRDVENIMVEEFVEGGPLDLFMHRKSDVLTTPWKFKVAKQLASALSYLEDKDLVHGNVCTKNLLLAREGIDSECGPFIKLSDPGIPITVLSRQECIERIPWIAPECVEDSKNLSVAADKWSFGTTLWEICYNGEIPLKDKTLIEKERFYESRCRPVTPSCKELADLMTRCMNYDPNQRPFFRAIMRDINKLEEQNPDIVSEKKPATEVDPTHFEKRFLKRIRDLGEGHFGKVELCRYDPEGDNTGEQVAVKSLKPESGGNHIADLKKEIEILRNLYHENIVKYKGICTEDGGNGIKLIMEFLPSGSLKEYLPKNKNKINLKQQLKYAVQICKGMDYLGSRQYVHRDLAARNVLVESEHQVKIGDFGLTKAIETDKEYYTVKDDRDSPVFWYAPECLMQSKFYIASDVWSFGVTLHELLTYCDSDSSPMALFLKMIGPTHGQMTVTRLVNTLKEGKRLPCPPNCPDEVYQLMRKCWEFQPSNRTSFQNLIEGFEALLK
UniProt P06239: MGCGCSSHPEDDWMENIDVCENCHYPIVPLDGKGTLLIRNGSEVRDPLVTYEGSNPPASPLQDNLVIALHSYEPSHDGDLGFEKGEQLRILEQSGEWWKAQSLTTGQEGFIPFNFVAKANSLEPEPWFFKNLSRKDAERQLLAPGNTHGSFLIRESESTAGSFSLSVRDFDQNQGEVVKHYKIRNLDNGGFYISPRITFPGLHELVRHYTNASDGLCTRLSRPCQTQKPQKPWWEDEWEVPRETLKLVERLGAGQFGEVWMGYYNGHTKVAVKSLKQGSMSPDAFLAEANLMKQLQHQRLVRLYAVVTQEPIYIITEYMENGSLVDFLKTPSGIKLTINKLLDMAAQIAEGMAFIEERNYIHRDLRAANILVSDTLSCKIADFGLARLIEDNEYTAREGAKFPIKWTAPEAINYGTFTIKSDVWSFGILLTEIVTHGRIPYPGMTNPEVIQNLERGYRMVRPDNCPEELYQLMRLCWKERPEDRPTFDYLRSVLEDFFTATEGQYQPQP
UniProt P53667: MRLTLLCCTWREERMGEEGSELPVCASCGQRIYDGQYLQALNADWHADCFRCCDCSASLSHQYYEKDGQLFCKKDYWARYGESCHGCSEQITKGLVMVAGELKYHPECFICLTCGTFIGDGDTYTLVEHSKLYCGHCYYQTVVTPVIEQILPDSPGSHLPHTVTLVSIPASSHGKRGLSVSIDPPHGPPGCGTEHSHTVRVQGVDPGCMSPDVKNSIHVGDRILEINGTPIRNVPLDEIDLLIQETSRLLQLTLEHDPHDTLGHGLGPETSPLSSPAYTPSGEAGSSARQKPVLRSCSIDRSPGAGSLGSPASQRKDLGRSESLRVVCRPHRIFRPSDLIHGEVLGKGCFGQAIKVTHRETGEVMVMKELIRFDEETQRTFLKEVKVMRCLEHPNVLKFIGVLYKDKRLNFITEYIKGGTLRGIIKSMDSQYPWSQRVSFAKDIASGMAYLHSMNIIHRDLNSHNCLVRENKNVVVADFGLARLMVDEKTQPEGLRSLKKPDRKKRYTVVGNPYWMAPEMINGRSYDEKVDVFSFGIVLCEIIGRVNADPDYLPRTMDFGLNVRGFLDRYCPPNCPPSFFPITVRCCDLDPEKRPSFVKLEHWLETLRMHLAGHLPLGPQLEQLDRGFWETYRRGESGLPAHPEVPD
UniProt P53671: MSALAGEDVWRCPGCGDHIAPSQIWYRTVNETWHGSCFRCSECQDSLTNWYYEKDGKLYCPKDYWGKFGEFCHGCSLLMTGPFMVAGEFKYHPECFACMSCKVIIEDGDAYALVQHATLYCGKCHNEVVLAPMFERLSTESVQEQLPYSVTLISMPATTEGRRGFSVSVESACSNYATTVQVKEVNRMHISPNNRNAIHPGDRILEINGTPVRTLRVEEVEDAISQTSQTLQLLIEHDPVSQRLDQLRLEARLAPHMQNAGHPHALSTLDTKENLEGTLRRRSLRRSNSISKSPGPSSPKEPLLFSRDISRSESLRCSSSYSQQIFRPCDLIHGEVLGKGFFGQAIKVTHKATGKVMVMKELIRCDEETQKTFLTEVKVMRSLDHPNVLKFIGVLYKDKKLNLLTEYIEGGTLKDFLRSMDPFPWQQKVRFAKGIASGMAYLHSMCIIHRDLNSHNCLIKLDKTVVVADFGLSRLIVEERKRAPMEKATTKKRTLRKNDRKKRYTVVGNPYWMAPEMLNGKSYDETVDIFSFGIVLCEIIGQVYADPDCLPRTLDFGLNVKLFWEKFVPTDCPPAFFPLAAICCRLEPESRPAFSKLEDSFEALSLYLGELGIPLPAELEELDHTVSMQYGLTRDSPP
UniProt Q8IWU2: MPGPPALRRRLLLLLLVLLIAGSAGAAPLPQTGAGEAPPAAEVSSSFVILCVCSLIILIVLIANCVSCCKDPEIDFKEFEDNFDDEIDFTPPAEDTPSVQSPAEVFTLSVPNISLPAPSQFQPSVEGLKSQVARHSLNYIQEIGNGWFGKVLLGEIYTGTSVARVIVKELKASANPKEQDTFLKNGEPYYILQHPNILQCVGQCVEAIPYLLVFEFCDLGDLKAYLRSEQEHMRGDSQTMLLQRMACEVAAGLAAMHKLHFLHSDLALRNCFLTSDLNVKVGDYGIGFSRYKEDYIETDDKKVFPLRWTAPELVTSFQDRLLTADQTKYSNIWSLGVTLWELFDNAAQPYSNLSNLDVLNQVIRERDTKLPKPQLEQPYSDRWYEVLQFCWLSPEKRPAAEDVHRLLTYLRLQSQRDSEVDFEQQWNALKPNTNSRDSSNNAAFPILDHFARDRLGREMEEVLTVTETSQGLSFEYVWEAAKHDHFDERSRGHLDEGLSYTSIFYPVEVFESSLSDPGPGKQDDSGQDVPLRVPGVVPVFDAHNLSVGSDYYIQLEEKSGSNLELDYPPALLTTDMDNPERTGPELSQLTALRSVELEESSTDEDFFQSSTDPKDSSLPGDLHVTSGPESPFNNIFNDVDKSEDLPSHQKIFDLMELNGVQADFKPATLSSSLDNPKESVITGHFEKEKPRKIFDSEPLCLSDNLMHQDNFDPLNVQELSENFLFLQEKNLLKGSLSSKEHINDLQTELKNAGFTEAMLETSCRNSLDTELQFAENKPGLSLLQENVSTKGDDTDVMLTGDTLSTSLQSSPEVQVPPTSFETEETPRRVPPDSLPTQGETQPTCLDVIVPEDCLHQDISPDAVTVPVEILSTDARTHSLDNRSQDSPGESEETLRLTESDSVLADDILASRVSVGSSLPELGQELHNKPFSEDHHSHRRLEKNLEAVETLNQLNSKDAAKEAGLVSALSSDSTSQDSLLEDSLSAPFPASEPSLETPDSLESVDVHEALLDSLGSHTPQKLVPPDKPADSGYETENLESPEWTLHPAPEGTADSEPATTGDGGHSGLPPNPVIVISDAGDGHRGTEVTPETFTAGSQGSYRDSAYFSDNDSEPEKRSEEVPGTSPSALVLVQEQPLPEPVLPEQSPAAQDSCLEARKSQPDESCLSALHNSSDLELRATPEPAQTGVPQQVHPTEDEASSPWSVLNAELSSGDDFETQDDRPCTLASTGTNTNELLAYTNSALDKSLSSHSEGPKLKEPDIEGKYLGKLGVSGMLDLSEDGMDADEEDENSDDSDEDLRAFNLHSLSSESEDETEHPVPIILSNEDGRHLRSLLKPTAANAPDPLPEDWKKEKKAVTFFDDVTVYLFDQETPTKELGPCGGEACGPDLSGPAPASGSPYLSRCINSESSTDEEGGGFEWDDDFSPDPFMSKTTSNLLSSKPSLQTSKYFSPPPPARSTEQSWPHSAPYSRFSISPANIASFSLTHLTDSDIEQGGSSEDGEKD
UniProt P07948: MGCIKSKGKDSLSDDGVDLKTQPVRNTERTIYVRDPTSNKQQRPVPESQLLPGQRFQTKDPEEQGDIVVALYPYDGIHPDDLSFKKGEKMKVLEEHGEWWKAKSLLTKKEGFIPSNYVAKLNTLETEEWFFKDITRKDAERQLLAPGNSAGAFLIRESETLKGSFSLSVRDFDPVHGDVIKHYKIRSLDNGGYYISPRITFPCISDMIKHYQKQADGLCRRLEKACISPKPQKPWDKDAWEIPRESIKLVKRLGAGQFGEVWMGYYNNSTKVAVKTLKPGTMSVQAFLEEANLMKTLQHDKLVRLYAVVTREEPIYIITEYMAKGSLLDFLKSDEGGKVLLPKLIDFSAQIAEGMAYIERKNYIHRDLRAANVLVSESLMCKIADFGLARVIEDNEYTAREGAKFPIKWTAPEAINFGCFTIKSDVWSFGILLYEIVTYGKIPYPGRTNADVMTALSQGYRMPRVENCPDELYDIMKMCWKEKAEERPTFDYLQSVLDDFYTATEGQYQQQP
UniProt Q12851: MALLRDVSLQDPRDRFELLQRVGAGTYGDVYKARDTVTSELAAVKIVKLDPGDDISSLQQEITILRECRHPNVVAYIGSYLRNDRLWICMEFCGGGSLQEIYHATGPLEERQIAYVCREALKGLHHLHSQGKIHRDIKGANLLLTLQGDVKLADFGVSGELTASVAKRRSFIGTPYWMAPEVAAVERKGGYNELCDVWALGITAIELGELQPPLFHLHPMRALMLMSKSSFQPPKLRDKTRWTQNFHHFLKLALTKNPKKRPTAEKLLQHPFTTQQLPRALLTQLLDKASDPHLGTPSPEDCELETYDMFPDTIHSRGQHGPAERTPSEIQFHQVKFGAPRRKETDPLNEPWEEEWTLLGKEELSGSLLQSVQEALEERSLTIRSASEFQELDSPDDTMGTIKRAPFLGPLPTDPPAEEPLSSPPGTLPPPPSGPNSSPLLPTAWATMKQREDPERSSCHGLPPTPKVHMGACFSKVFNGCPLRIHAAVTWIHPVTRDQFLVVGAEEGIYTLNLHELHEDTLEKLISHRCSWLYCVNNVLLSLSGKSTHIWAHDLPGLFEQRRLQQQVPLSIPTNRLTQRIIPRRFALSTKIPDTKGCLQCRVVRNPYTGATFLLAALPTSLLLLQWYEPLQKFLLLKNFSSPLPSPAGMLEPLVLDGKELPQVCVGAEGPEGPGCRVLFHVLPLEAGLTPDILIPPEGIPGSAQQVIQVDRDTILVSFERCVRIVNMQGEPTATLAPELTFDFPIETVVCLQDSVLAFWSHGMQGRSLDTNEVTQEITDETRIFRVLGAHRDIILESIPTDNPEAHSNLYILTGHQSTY

Experiments:
Assay in all cases: kinase-Nluc reporter destabilization hit call (1 = scored as downregulated) (binary); higher = compound decreases kinase abundance
Settings in all cases: K562; 2-18 h
IRAK3 = IRAK3 (UniProt Q9Y616)
JAK1 = JAK1 (UniProt P23458)
LCK = LCK (UniProt P06239)
LIMK1 = LIMK1 (UniProt P53667)
LIMK2 = LIMK2 (UniProt P53671)
LMTK2 = LMTK2 (UniProt Q8IWU2)
LYN = LYN (UniProt P07948)
MAP2K1 = MAP2K1 (UniProt Q02750)
MAP2K2 = MAP2K2 (UniProt P36507)
MAP4K2 = MAP4K2 (UniProt Q12851)

Measured: kinase-Nluc reporter destabilization hit call

Nc1nc(N)c(N=O)c(OCC2CCCCC2)n1 (10 µM)
inactive: IRAK3 = 0 | JAK1 = 0 | LCK 0 | LIMK1 = 0 | LIMK2 = 0 | LMTK2 = 0 | LYN 0 | MAP2K1 = 0 | MAP2K2 = 0 | MAP4K2 = 0

CC(C)(C#N)c1ccc(N2C(=O)OCc3cnc4ccc(-c5cnc6ccccc6c5)cc4c32)cc1 (2.5 µM)
inactive: IRAK3 = 0 | JAK1 = 0 | LCK 0 | LIMK1 = 0 | LIMK2 = 0 | LMTK2 = 0 | LYN 0 | MAP2K1 = 0 | MAP2K2 = 0 | MAP4K2 = 0

CCN(CCCOc1ccc2c(Nc3cc(CC(=O)Nc4cccc(F)c4)[nH]n3)ncnc2c1)CCOP(=O)(O)O [Barasertib] (10 µM)
inactive: IRAK3 = 0 | JAK1 = 0 | LCK 0 | LIMK1 = 0 | LIMK2 = 0 | LMTK2 = 0 | LYN 0 | MAP2K1 = 0 | MAP2K2 = 0 | MAP4K2 = 0

CC1(C)CC=C(c2nc(C3CC(C)(C)OC(C)(C)C3)ccc2NC(=O)c2nc(C#N)c[nH]2)CC1 [Edicotinib] (2.5 µM)
inactive: IRAK3 = 0 | JAK1 = 0 | LCK 0 | LIMK1 = 0 | LIMK2 = 0 | LMTK2 = 0 | LYN 0 | MAP2K1 = 0 | MAP2K2 = 0 | MAP4K2 = 0

CC(C)(C)S(=O)(=O)c1cc2c(Nc3ccc4scnc4c3)ncnc2cc1OCCO (2.5 µM)
inactive: IRAK3 = 0 | JAK1 = 0 | LCK 0 | LIMK1 = 0 | LIMK2 = 0 | LMTK2 = 0 | LYN 0 | MAP2K1 = 0 | MAP2K2 = 0 | MAP4K2 = 0

COc1ccc(C=C(C#N)c2cccnc2)cc1OC (10 µM)
inactive: IRAK3 = 0 | JAK1 = 0 | LCK 0 | LIMK1 = 0 | LIMK2 = 0 | LMTK2 = 0 | LYN 0 | MAP2K1 = 0 | MAP2K2 = 0 | MAP4K2 = 0

C[C@H](CN(C)C)Oc1nc(Nc2cc3cccc(Cl)c3cn2)cnc1C#N (10 µM)
inactive: IRAK3 = 0 | JAK1 = 0 | LCK 0 | LIMK1 = 0 | LIMK2 = 0 | LMTK2 = 0 | LYN 0 | MAP2K1 = 0 | MAP2K2 = 0 | MAP4K2 = 0

NC(=O)c1ccc2nc(-c3ccc(Oc4ccc(Cl)cc4)cc3)[nH]c2c1 (10 µM)
inactive: IRAK3 = 0 | JAK1 = 0 | LCK 0 | LIMK1 = 0 | LIMK2 = 0 | LMTK2 = 0 | LYN 0 | MAP2K1 = 0 | MAP2K2 = 0 | MAP4K2 = 0

O=c1c(-c2ccc(O)cc2)coc2cc(O)cc(O)c12 [Genistein] (10 µM)
inactive: IRAK3 = 0 | JAK1 = 0 | LCK 0 | LIMK1 = 0 | LIMK2 = 0 | LMTK2 = 0 | LYN 0 | MAP2K1 = 0 | MAP2K2 = 0 | MAP4K2 = 0

An excerpt from above in order of formula weight, low to high.
COc1ccc(C=C(C#N)c2cccnc2)cc1OC (10 µM)
inactive: IRAK3 = 0 | JAK1 = 0 | LCK 0 | LIMK1 = 0 | LIMK2 = 0 | LMTK2 = 0 | LYN 0 | MAP2K1 = 0 | MAP2K2 = 0 | MAP4K2 = 0

C[C@H](CN(C)C)Oc1nc(Nc2cc3cccc(Cl)c3cn2)cnc1C#N (10 µM)
inactive: IRAK3 = 0 | JAK1 = 0 | LCK 0 | LIMK1 = 0 | LIMK2 = 0 | LMTK2 = 0 | LYN 0 | MAP2K1 = 0 | MAP2K2 = 0 | MAP4K2 = 0

CC(C)(C)S(=O)(=O)c1cc2c(Nc3ccc4scnc4c3)ncnc2cc1OCCO (2.5 µM)
inactive: IRAK3 = 0 | JAK1 = 0 | LCK 0 | LIMK1 = 0 | LIMK2 = 0 | LMTK2 = 0 | LYN 0 | MAP2K1 = 0 | MAP2K2 = 0 | MAP4K2 = 0

Additional records follow:

CCCCNc1ncc(-c2ccc(CN3CCOCC3)cn2)c(NC2CCC(O)CC2)n1 (stereo not given) (10 µM)
inactive: IRAK3 = 0 | JAK1 = 0 | LCK 0 | LIMK1 = 0 | LIMK2 = 0 | LMTK2 = 0 | LYN 0 | MAP2K1 = 0 | MAP2K2 = 0 | MAP4K2 = 0

CC(C)c1cnn2c(NCc3ccccc3)cc(NC[C@H]3CCNC[C@@H]3O)nc12 [Samuraciclib (hydrochloride)] (10 µM)
inactive: IRAK3 = 0 | JAK1 = 0 | LCK 0 | LIMK1 = 0 | LIMK2 = 0 | LMTK2 = 0 | LYN 0 | MAP2K1 = 0 | MAP2K2 = 0 | MAP4K2 = 0

COc1ccc2c(NC(=O)Nc3cccc(C(F)(F)F)n3)ccnc2c1 (10 µM)
inactive: IRAK3 = 0 | JAK1 = 0 | LCK 0 | LIMK1 = 0 | LIMK2 = 0 | LMTK2 = 0 | LYN 0 | MAP2K1 = 0 | MAP2K2 = 0 | MAP4K2 = 0

C=CC(=O)N1C[C@H](Nc2ncnc3[nH]ccc23)CC[C@@H]1C [Ritlecitinib] (10 µM)
inactive: IRAK3 = 0 | JAK1 = 0 | LCK 0 | LIMK1 = 0 | LIMK2 = 0 | LMTK2 = 0 | LYN 0 | MAP2K1 = 0 | MAP2K2 = 0 | MAP4K2 = 0

C=CC(=O)N[C@H]1COC[C@H]1Nc1ncc2cc(-c3c(Cl)c(OC)cc(OC)c3Cl)c(=O)n(C)c2n1 (10 µM)
inactive: IRAK3 = 0 | JAK1 = 0 | LCK 0 | LIMK1 = 0 | LIMK2 = 0 | LMTK2 = 0 | LYN 0 | MAP2K1 = 0 | MAP2K2 = 0 | MAP4K2 = 0

COc1cc2ncnc(Nc3ccc(O)cc3)c2cc1OC (10 µM)
inactive: IRAK3 = 0 | JAK1 = 0 | LCK 0 | LIMK1 = 0 | LIMK2 = 0 | LMTK2 = 0 | LYN 0 | MAP2K1 = 0 | MAP2K2 = 0 | MAP4K2 = 0

c1cc(OCCN2CCCCC2)cc(-c2n[nH]c3ccc(-c4nnc[nH]4)cc23)c1 [CC-401 (hydrochloride)] (10 µM)
inactive: IRAK3 = 0 | JAK1 = 0 | LCK 0 | LIMK1 = 0 | LIMK2 = 0 | LMTK2 = 0 | LYN 0 | MAP2K1 = 0 | MAP2K2 = 0 | MAP4K2 = 0

CC(C)(C)c1cc(NC(=O)Nc2ccc(-c3cn4c(n3)sc3cc(OCCN5CCOCC5)ccc34)cc2)no1 [Quizartinib] (10 µM)
inactive: IRAK3 = 0 | JAK1 = 0 | LCK 0 | LIMK1 = 0 | LIMK2 = 0 | LMTK2 = 0 | LYN 0 | MAP2K1 = 0 | MAP2K2 = 0 | MAP4K2 = 0

Cc1ccc2c(Nc3cccc(OC(F)(F)F)c3)nccc2c1Nc1ncccc1-c1ncnc2[nH]cnc12 (10 µM)
inactive: IRAK3 = 0 | JAK1 = 0 | LCK 0 | LIMK1 = 0 | LIMK2 = 0 | LMTK2 = 0 | LYN 0 | MAP2K1 = 0 | MAP2K2 = 0 | MAP4K2 = 0

Cc1c(NC(=O)c2cc3c(s2)CCCC3)cccc1-c1cn(C)c(=O)c(Nc2ccc([C@@H]3C(=O)N(C)CCN3C)cc2)n1 (10 µM)
inactive: IRAK3 = 0 | JAK1 = 0 | LCK 0 | LIMK1 = 0 | LIMK2 = 0 | LMTK2 = 0 | LYN 0 | MAP2K1 = 0 | MAP2K2 = 0 | MAP4K2 = 0

O=C(c1ccc(-c2ccc(Cl)cc2)o1)N(Cc1ccccn1)c1ccc(N2CCNCC2)cc1 [MK2-IN-1 (hydrochloride)] (10 µM)
inactive: IRAK3 = 0 | JAK1 = 0 | LCK 0 | LIMK1 = 0 | LIMK2 = 0 | LMTK2 = 0 | LYN 0 | MAP2K1 = 0 | MAP2K2 = 0 | MAP4K2 = 0

COC(=O)c1ccc2c(C(=Nc3ccc(N(C)C(=O)CN4CCN(C)CC4)cc3)c3ccccc3)c(O)[nH]c2c1 [Nintedanib] (2.5 µM)
inactive: IRAK3 = 0 | JAK1 = 0 | LCK 0 | LIMK1 = 0 | LIMK2 = 0 | LMTK2 = 0 | LYN 0 | MAP2K1 = 0 | MAP2K2 = 0 | MAP4K2 = 0

NS(=O)(=O)c1ccc(Nc2nc(OCC3CCCCC3)c3[nH]cnc3n2)cc1 (10 µM)
inactive: IRAK3 = 0 | JAK1 = 0 | LCK 0 | LIMK1 = 0 | LIMK2 = 0 | LMTK2 = 0 | LYN 0 | MAP2K1 = 0 | MAP2K2 = 0 | MAP4K2 = 0

Cn1c(=O)n(-c2ccc(C(C)(C)C#N)cc2)c2c3cc(-c4cnc5ccccc5c4)ccc3ncc21 [Dactolisib (Tosylate)] (10 µM)
inactive: IRAK3 = 0 | JAK1 = 0 | LCK 0 | LIMK1 = 0 | LIMK2 = 0 | LMTK2 = 0 | LYN 0 | MAP2K1 = 0 | MAP2K2 = 0 | MAP4K2 = 0

COc1cc(OC)cc(-c2cc3cnc(N)nc3nc2NC(=O)NC(C)(C)C)c1 (10 µM)
inactive: IRAK3 = 0 | JAK1 = 0 | LCK 0 | LIMK1 = 0 | LIMK2 = 0 | LMTK2 = 0 | LYN 0 | MAP2K1 = 0 | MAP2K2 = 0 | MAP4K2 = 0

Cc1cc(CS(=O)(=O)c2ccccc2)cc(OCc2ccc(CN3CCC[C@@H]3CO)cc2)c1 [PF-543 (Citrate)] (10 µM)
inactive: IRAK3 = 0 | JAK1 = 0 | LCK 0 | LIMK1 = 0 | LIMK2 = 0 | LMTK2 = 0 | LYN 0 | MAP2K1 = 0 | MAP2K2 = 0 | MAP4K2 = 0

C=CC(=O)N1CCC[C@@H](n2nc(-c3ccc(Oc4ccccc4)cc3)c(C(N)=O)c2N)C1 [Btk inhibitor 2] (10 µM)
inactive: IRAK3 = 0 | JAK1 = 0 | LCK 0 | LIMK1 = 0 | LIMK2 = 0 | LMTK2 = 0 | LYN 0 | MAP2K1 = 0 | MAP2K2 = 0 | MAP4K2 = 0

CC(C)c1ccc2oc3nc(N)c(C(=O)O)cc3c(=O)c2c1 [Amlexanox] (10 µM)
inactive: IRAK3 = 0 | JAK1 = 0 | LCK 0 | LIMK1 = 0 | LIMK2 = 0 | LMTK2 = 0 | LYN 0 | MAP2K1 = 0 | MAP2K2 = 0 | MAP4K2 = 0
